Measured values taken from article PMC10986105.
Results are given in words; binding and its absence hold for the method and conditions named. In cells and extracts the contact can be indirect. Some binding calls cover weakened binding; strength is not graded here. For part of these data: Where a sequence is shown, tags or fusion partners need not be part of it.

Chains of the proteins cited; added tags and fusions are not shown.
UniProt Q7L0Q8: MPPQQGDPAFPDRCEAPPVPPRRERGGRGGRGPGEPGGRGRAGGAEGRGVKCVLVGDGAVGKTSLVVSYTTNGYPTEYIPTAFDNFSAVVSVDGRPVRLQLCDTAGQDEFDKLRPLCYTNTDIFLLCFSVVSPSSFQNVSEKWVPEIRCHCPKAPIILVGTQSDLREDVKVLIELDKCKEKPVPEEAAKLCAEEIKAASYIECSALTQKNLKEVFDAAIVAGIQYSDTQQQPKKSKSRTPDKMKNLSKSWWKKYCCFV

Experiments:
[1] = target: T1, Flag-tagging AnxA6 (annexin A6 from plasmid pTango-4*Flag-AnxA6) (UniProt P08133); assay: co-IP; anti-Flag M2 affinity gel on lysate of transfected HepG2 cells (pFlag-AnxA6 or pFlag-AnxA6^K579R with pEGFP-RHOU, in Fig. 6C also pHis-SUMO1; for SENP1 pFlag-AnxA6 with or without pFlag-SENP1), 48 h after transfection; western blot of the precipitate
T1 sequence: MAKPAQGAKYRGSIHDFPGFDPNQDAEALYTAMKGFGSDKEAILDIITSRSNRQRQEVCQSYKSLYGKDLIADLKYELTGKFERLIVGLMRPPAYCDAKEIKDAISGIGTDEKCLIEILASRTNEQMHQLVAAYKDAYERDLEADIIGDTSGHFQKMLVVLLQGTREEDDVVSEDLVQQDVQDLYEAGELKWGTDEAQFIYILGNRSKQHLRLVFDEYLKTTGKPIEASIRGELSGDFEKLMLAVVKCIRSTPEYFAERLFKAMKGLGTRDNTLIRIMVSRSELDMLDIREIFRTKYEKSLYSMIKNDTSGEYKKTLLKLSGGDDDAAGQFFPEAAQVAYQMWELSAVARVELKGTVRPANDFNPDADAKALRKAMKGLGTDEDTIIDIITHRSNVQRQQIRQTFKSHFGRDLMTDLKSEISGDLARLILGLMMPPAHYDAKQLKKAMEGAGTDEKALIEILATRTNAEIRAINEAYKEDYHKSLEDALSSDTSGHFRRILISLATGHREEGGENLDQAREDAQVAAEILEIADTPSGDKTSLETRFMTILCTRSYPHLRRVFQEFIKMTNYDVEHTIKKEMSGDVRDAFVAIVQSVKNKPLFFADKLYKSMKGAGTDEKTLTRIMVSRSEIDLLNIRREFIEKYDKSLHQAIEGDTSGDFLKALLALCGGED

[2] = target: T2, endogenous AnxA6 (annexin A6) (human (endogenous in HepG2)) (UniProt P08133); assay: co-IP; lysate of untransfected HepG2 cells (also TPA-induced HepG2 cells); IP of endogenous AnxA6 with antibody on protein A beads overnight at 4 °C, normal rabbit IgG as control; immunoblot with RHOU antibody
T2 sequence: T1 sequence

[3] = target: T1, Flag-tagging AnxA6 (annexin A6 from plasmid pTango-4*Flag-AnxA6); assay: co-IP; HepG2 cells transfected with pFlag-AnxA6 for 48 h; IP of the lysate to capture AnxA6 (antibody not named), immunoblot with RHOU antibody

With “EGFP-tagging RHOU (Ras homolog family member U from plasmid pEGFP-RHOU) (from UniProt Q7L0Q8 1-258)” the binding [1] was “binds”.

“endogenous RHOU protein (29 KDa) (from UniProt Q7L0Q8 1-258)” was tested, and the binding [2] was “binds” and the binding [3] was “binds”.
